The values that follow are results of earlier work, collected in patent US5776859A, “Sodium channel active novel compounds and related processes and bioassay techniques” (priority 1995, dated 1998).

The conditions of this data set: in the body; conversion to 2,6-xylidine; cited from earlier work.

Turning to `CCN(CC)CC(=O)Nc1c(C)cccc1C` [Lidocaine], the metabolism result is “converted into an aniline homolog, 2, 6-xylidine”.
